Experimental data taken from PMC3929086, “Targeted manipulation of the sortilin–progranulin axis rescues progranulin haploinsufficiency” (Human Molecular Genetics, 2013).
Results are given in words; binding and its absence hold for the method and conditions named. Binding seen in cells or lysates may run through a third protein. Some entries that bind do so weakly or less than the wild type.

Sequences of proteins named here, by UniProt entry; tags and fusion partners are left off. Residues count along the entry.
UniProt Q99523, residues 78-831: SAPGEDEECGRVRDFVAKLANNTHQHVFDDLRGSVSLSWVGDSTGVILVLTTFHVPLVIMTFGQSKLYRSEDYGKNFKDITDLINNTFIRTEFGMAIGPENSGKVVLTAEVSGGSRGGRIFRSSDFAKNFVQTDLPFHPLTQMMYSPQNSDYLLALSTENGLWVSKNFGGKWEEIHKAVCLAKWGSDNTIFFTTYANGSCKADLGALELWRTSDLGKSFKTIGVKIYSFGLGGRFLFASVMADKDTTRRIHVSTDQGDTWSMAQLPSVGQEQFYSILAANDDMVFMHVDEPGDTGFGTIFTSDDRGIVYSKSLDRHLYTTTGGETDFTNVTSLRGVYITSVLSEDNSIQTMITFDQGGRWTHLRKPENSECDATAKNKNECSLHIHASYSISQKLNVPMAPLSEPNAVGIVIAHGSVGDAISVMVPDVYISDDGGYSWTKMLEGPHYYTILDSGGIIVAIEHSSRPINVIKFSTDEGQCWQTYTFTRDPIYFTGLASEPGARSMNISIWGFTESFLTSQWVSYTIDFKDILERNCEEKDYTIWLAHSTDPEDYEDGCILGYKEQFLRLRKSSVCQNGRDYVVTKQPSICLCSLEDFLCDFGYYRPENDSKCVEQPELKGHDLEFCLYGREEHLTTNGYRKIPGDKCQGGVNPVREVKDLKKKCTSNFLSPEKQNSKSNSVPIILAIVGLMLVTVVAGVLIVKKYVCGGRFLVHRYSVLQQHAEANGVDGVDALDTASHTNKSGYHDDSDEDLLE

B1: neurotensin (NTS) (peptide)
peptide: ELYENKPRRPYIL
B2: human PGRN_(588-593) peptide (peptide)
peptide: ALRQLL
B3: mouse Pgrn_(584-589) peptide (peptide)
peptide: VPRPLL

molecular target: SORT1-Flag (sortilin with C-terminal Flag tag), in HEK293T lysate (human) (UniProt Q99523); assay: co-IP; 300 ug lysate of HEK293T cells with SORT1-Flag, pre-incubated 1 h with or without 20 uM NTS, human PGRN(588-593) or mouse PGRN(584-589) peptide; rPGRN 100 nM added for 30 min; anti-Flag M2 agarose 4 h; western blot; only the binder purified

binding, binds:
B1, B2, B3
